Experimental data: the supplement of paper PMC10849652
The list shows a part of the results.

The chains behind the UniProt entries cited, without tags or fusion partners. Where a name states a change or a piece, a line headed by the entry shows the natural chain unless it says otherwise.
UniProt P07311: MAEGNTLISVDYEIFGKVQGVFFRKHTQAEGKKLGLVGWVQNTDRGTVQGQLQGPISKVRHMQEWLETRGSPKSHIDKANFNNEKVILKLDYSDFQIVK
UniProt O14672: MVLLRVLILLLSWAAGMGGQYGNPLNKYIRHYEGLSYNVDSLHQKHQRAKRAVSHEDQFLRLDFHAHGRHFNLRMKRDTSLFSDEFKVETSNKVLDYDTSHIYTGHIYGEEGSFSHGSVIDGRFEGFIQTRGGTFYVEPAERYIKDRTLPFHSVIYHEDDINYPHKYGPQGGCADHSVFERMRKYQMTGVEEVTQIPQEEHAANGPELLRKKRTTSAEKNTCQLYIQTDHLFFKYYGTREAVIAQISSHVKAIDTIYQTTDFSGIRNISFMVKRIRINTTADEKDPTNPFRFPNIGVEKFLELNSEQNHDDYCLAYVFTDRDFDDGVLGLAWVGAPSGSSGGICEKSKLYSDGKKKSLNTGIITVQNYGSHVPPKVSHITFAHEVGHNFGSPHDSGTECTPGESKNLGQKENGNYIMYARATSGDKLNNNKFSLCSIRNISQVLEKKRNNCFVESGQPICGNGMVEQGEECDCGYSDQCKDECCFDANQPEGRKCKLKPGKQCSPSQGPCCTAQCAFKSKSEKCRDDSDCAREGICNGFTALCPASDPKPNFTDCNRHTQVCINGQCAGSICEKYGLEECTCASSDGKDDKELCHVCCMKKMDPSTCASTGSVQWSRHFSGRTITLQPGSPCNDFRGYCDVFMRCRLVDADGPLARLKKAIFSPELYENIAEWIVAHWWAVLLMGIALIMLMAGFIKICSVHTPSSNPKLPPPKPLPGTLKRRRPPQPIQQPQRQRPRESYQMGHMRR
UniProt P24666: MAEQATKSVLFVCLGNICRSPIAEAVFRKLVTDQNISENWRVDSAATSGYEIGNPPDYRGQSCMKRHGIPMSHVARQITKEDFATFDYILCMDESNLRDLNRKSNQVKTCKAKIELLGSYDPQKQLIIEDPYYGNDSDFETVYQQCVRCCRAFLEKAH
UniProt Q02952: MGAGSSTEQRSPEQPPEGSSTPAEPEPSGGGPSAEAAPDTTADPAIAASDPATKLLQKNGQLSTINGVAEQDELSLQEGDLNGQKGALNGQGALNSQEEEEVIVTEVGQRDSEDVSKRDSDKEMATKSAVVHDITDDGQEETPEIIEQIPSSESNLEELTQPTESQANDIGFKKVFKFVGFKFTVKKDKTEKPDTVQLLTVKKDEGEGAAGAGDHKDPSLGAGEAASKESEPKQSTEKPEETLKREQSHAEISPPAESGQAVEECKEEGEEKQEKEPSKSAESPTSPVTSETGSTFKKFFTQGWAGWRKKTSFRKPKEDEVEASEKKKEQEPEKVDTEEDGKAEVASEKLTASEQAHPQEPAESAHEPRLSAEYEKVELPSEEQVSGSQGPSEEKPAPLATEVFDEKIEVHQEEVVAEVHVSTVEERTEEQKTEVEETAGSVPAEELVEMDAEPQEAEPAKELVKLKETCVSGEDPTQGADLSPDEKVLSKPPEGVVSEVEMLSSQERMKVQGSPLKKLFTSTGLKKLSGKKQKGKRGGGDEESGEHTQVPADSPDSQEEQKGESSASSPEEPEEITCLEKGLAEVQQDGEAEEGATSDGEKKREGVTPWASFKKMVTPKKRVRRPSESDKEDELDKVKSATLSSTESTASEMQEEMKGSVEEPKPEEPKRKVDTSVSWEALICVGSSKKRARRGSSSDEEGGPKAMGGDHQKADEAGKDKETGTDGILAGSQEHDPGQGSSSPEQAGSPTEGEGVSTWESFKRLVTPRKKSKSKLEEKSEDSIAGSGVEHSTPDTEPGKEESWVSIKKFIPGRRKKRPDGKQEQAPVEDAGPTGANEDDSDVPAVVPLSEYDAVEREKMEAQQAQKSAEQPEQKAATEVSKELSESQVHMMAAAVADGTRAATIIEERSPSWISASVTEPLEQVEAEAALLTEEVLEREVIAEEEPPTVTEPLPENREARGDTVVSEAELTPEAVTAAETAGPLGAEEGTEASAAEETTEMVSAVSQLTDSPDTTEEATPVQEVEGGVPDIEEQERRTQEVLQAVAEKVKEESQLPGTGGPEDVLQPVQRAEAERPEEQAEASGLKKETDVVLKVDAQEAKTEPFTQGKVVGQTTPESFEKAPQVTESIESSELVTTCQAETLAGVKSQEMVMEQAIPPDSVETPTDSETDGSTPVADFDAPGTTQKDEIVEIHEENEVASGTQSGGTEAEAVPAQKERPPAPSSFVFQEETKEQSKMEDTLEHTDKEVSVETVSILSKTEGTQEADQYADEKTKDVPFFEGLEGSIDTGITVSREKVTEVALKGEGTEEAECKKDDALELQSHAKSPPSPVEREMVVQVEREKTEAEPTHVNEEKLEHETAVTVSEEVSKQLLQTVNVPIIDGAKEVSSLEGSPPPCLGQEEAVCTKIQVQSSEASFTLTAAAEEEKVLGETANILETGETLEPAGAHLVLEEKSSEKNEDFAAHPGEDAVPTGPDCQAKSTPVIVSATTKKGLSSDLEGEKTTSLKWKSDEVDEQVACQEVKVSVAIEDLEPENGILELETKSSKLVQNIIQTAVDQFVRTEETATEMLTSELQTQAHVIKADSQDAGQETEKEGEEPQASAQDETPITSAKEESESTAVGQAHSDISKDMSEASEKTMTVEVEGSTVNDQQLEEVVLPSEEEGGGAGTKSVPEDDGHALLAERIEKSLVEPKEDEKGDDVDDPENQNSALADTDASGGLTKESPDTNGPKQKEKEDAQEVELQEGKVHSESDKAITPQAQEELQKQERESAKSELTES
UniProt Q9UPW5: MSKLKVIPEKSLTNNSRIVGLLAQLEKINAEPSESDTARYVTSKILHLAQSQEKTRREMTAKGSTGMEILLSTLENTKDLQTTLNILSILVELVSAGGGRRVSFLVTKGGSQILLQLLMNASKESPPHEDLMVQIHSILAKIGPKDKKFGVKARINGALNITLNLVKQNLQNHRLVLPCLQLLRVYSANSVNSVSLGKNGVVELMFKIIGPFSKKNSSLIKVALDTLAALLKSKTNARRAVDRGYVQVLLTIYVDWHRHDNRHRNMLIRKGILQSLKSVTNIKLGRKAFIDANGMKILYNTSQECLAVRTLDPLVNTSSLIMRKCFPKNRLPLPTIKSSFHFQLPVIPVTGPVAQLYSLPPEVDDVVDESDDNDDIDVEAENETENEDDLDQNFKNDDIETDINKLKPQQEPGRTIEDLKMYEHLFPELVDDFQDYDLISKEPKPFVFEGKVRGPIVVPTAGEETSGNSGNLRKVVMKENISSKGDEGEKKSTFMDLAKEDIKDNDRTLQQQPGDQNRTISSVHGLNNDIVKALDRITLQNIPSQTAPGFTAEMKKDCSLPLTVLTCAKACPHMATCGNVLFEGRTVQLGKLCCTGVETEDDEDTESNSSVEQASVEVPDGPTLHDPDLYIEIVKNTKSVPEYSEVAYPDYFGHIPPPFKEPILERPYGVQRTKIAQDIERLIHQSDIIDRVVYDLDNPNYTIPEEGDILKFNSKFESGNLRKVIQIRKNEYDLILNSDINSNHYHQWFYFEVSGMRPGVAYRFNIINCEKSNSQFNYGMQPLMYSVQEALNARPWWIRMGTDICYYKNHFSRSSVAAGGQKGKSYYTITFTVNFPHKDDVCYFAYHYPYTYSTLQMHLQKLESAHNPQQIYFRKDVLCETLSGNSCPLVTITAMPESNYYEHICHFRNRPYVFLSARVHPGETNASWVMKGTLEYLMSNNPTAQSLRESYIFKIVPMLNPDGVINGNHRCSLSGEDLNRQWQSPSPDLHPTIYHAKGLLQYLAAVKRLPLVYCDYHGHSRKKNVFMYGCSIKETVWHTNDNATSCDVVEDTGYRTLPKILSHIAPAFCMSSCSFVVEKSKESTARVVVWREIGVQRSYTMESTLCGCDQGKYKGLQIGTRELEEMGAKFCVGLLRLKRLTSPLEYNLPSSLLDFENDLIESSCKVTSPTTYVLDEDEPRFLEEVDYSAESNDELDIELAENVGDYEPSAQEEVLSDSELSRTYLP
UniProt P54922: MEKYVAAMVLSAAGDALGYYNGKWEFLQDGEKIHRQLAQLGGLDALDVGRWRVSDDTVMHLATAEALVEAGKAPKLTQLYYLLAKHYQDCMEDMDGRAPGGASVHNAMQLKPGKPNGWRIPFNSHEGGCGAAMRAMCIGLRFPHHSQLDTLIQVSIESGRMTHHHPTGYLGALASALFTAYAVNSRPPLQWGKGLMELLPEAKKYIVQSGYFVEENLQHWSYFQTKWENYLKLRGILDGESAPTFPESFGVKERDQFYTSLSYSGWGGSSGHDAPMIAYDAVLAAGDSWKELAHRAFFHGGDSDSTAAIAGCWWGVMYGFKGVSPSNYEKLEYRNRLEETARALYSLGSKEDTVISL
UniProt P51825: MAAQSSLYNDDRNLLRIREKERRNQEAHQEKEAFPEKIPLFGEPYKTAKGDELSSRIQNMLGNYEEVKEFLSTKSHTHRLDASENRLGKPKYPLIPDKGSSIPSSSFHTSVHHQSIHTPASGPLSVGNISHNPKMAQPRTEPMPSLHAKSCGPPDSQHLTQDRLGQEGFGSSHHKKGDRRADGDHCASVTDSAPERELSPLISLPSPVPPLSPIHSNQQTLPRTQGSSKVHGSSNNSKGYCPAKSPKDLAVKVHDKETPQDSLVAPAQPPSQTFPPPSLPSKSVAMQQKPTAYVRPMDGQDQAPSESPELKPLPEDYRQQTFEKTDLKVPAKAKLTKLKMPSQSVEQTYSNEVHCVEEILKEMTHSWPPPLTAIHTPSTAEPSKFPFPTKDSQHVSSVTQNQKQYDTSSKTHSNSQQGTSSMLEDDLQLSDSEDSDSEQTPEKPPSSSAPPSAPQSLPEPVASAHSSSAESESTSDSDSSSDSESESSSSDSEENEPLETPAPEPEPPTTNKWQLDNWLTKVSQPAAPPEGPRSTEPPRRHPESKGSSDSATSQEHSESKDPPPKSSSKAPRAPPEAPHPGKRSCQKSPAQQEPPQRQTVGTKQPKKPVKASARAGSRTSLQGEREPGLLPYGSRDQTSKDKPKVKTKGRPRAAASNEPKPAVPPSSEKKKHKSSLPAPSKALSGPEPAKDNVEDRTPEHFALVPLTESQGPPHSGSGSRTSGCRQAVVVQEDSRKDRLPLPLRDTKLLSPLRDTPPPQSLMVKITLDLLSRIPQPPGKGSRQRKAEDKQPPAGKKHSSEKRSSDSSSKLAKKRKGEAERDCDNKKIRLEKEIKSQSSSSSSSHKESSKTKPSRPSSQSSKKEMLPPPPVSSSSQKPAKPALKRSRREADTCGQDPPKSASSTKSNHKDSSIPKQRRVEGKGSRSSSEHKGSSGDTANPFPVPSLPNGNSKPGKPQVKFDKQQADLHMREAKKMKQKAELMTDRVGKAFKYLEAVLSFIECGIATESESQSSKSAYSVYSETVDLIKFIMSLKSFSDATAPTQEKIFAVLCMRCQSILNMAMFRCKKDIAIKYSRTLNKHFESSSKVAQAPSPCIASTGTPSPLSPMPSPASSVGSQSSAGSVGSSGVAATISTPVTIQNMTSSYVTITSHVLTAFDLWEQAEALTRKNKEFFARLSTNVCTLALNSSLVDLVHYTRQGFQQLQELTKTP
UniProt Q96P47: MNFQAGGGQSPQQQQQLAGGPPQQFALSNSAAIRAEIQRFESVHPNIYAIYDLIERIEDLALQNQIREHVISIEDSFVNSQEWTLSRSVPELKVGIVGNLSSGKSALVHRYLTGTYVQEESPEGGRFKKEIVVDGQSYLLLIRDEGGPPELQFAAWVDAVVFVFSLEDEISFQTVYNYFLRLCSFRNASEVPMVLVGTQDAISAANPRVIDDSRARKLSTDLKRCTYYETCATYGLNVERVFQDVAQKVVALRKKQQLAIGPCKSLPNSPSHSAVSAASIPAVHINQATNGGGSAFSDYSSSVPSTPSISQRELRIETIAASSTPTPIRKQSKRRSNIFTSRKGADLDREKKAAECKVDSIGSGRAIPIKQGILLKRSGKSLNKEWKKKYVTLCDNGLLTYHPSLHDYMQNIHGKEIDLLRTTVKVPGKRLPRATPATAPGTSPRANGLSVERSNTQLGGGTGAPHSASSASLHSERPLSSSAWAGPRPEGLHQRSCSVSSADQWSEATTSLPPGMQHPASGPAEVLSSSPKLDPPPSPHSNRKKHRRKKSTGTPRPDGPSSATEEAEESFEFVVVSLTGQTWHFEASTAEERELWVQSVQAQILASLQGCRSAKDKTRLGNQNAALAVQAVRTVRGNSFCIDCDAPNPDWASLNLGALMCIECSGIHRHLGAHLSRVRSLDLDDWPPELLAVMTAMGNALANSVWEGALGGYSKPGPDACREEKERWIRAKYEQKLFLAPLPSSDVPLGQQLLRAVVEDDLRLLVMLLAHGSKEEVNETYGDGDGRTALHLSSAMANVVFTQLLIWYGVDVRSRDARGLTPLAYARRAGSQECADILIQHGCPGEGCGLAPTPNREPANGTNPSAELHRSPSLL

compound: C1=CC=C2C(=C1)C3=NNC4=CC=CC(=C43)C2=O; assay: log2 fold change, soluble protein after heating vs DMSO (PISA); higher = thermal stabilisation; K562 lysate, 10 uM; active = over 0.2 and 3.5 SD of the protein, either way, in both replicates (recomputed)
Summary of the method: (§1)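 Log-two fold change in thermal stability relative to solvent controls is reported from duplicates. For each sample, crude K562 extract from dounce-homogenised pellets in PBS pH 7.4 with 1 mM MgCl2, at 1 mg/mL protein, was treated with 10 μM compound for 30 min. Aliquots heated for 3 min across 48°C-58°C were pooled, brought to 0.5% NP-40 at 4°C and cleared at 21,000xg for 90 min. The supernatant was quantified by TMTpro 16plex LC-MS/MS with channel sums equalised.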

log2 fold change, inactive:
AIP (UniProt O00170) 0.026
ACY1 (UniProt Q03154) 0.059
ACTG1 (UniProt I3L4N8) -0.207
ACYP1 (UniProt P07311) -0.01
ADIPOR2 (UniProt Q86V24) -0.227
ACSL1 (UniProt P33121) -0.04
ACOT9 isoform 4 (UniProt Q9Y305) -0.013
AGFG1 isoform 4 (UniProt P52594) 0.054
ADA (UniProt P00813) 0.001
ADAM10 (UniProt O14672) -0.029
AFF4 (UniProt Q9UHB7) 0.003
AKNA (UniProt Q7Z591) 0.078
ACSM3 (UniProt Q53FZ2) -0.026
ADH5 (UniProt P11766) 0.009
ADNP (UniProt Q9H2P0) -0.114
AKR1C3 (UniProt P42330) 0.024
ADD1 isoform 3 (UniProt P35611) 0.011
ADO (UniProt Q96SZ5) 0.015
ACSL4 (UniProt O60488) -0.032
AKR1A1 (UniProt P14550) -0.011
ACP1 isoform 2 (UniProt P24666) -0.015
ACTR1A (UniProt P61163) 0.009
AKAP12 (UniProt Q02952) -0.005
AK4 (UniProt P27144) 0.015
AGPS (UniProt O00116) -0.082
ACTB, A0A2R8Y793 -0.035
ACTR2 (UniProt P61160) -0.007
ACSF3 (UniProt Q4G176) -0.101
AGTPBP1 (UniProt Q9UPW5) -0.039
AHSA1 (UniProt O95433) 0.021
ADPRH (UniProt P54922) 0.037
AFF1 isoform 2 (UniProt P51825) -0.041
AGAP3 isoform 4 (UniProt Q96P47) -0.007
AIFM1 (UniProt O95831) 0.019

compound: C1CCN(C1)C(=O)NC2=CC=CC(=C2)NC3=NC=C(C(=N3)NCCC4=CN=CN4)Br; assay: as above
Summary of the method: as §1

log2 fold change, inactive:
AIP (UniProt O00170) -0.002
ACY1 (UniProt Q03154) 0.002
ACTG1 (UniProt I3L4N8) -0.142
ACYP1 (UniProt P07311) 0.024
ADIPOR2 (UniProt Q86V24) 0.057
ACSL1 (UniProt P33121) 0.009
ACOT9 isoform 4 (UniProt Q9Y305) -0.012
AGFG1 isoform 4 (UniProt P52594) -0.041
ADA (UniProt P00813) -0.008
ADAM10 (UniProt O14672) -0.021
AFF4 (UniProt Q9UHB7) 0.032
AKNA (UniProt Q7Z591) 0.209
ACSM3 (UniProt Q53FZ2) 0.031
ADH5 (UniProt P11766) 0.011
ADNP (UniProt Q9H2P0) 0.008
AKR1C3 (UniProt P42330) 0.05
ADD1 isoform 3 (UniProt P35611) -0.015
ADO (UniProt Q96SZ5) -0.006
ACSL4 (UniProt O60488) -0.065
AKR1A1 (UniProt P14550) -0.008
ACP1 isoform 2 (UniProt P24666) -0.025
ACTR1A (UniProt P61163) -0.009
AKAP12 (UniProt Q02952) 0.095
AK4 (UniProt P27144) 0.036
AGPS (UniProt O00116) -0.034
ACTB, A0A2R8Y793 -0.008
ACTR2 (UniProt P61160) 0.014
ACSF3 (UniProt Q4G176) -0.053
AGTPBP1 (UniProt Q9UPW5) -0.017
AHSA1 (UniProt O95433) 0
ADPRH (UniProt P54922) -0.086
AFF1 isoform 2 (UniProt P51825) -0.002
AGAP3 isoform 4 (UniProt Q96P47) 0.042
AIFM1 (UniProt O95831) 0.016

compound: C1CN(CCC1(CC2=CC=C(C=C2)Cl)N)C3=NC=NC4=C3C=CN4; assay: as above
Summary of the method: as §1

log2 fold change, inactive:
AIP (UniProt O00170) 0.016
ACY1 (UniProt Q03154) -0.017
ACTG1 (UniProt I3L4N8) -0.143
ACYP1 (UniProt P07311) -0.004
ADIPOR2 (UniProt Q86V24) 0.078
ACSL1 (UniProt P33121) 0.012
ACOT9 isoform 4 (UniProt Q9Y305) -0.021
AGFG1 isoform 4 (UniProt P52594) -0.009
ADA (UniProt P00813) 0.01
ADAM10 (UniProt O14672) 0.006
AFF4 (UniProt Q9UHB7) 0.016
AKNA (UniProt Q7Z591) 0.027
ACSM3 (UniProt Q53FZ2) 0.007
ADH5 (UniProt P11766) -0.024
ADNP (UniProt Q9H2P0) -0.034
AKR1C3 (UniProt P42330) 0.029
ADD1 isoform 3 (UniProt P35611) -0.014
ADO (UniProt Q96SZ5) 0.004
ACSL4 (UniProt O60488) -0.007
AKR1A1 (UniProt P14550) 0.02
ACP1 isoform 2 (UniProt P24666) 0.087
ACTR1A (UniProt P61163) 0.009
AKAP12 (UniProt Q02952) 0.175
AK4 (UniProt P27144) 0.02
AGPS (UniProt O00116) 0.015
ACTB, A0A2R8Y793 0.023
ACTR2 (UniProt P61160) -0.005
ACSF3 (UniProt Q4G176) 0.056
AGTPBP1 (UniProt Q9UPW5) 0.005
AHSA1 (UniProt O95433) -0.009
ADPRH (UniProt P54922) -0.02
AFF1 isoform 2 (UniProt P51825) 0.005
AGAP3 isoform 4 (UniProt Q96P47) -0.046
AIFM1 (UniProt O95831) 0.009
